Paper PMC6886308, “NADP(H) allosterically regulates the interaction between ferredoxin and ferredoxin‐NADP^+ reductase” (FEBS Open Bio, 2019)
These are yes or no findings as the source states them, for the method shown. Some binding calls cover weakened binding; strength is not graded here.

The chains behind the UniProt entries cited, without tags or fusion partners. Residues count along the entry.
UniProt P27787, residues 53-150: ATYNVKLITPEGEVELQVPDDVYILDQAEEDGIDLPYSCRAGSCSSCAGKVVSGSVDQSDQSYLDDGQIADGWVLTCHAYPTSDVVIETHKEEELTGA

Target: maize leaf ferredoxin I (maize) (UniProt P27787)
Test: Fd-affinity chromatography; maize Fd I immobilised on resin (1 mL); stroma fraction of spinach chloroplasts loaded in 50 mM Tris/HCl pH 7.5, developed with 0-300 mM NaCl; fractions blotted with anti-L-FNR antibody; control and with 1 mM NADP+ or NAD+; only the target purified

B1: ferredoxin-NADP+ reductase in the stroma fraction of spinach chloroplasts (enzyme, UniProt P00455 56-369)
chain: QIASDVEAPPPAPAKVEKHSKKMEEGITVNKFKPKTPYVGRCLLNTKITGDDAPGETWHMVFSHEGEIPYREGQSVGVIPDGEDKNGKPHKLRLYSIASSALGDFGDAKSVSLCVKRLIYTNDAGETIKGVCSNFLCDLKPGAEVKLTGPVGKEMLMPKDPNATIIMLGTGTGIAPFRSFLWKMFFEKHDDYKFNGLAWLFLGVPTSSSLLYKEEFEKMKEKAPDNFRLDFAVSREQTNEKGEKMYIQTRMAQYAVELWEMLKKDNTYFYMCGLKGMEKGIDDIMVSLAAAEGIDWIEYKRQLKKAEQWNVEVY
  binding: binds
